Data from publication PMC8905599.
These are yes or no findings as the source states them, for the method shown. In cells and extracts the contact can be indirect. Some results given as binding are weak or reduced against the parent protein; the word gives no strength. One block for each molecule: values may come before it.

The chains behind the UniProt entries cited, without tags or fusion partners. Residues count along the entry.
UniProt Q9QUK6, residues 26-835: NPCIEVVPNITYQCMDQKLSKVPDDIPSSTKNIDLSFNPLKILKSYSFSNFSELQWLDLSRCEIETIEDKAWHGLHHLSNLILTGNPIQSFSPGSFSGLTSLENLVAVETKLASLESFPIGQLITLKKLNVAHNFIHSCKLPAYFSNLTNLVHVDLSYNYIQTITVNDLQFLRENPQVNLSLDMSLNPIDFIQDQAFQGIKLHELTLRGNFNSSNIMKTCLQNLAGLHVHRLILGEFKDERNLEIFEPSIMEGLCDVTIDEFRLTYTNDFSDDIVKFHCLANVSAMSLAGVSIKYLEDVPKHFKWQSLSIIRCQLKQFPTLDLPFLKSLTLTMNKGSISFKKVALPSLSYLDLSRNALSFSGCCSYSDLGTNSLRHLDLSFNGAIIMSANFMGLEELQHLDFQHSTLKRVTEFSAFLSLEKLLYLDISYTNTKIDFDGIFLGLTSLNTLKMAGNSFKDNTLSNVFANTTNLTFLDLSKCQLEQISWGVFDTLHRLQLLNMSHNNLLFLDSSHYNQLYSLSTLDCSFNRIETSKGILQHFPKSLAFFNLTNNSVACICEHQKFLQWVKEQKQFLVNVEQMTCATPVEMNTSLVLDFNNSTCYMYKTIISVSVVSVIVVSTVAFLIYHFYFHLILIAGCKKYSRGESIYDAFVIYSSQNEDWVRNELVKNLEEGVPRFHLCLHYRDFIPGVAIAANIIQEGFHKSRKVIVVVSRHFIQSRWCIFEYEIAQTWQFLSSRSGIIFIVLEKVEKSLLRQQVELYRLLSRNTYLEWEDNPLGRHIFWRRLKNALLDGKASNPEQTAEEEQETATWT
UniProt P22366: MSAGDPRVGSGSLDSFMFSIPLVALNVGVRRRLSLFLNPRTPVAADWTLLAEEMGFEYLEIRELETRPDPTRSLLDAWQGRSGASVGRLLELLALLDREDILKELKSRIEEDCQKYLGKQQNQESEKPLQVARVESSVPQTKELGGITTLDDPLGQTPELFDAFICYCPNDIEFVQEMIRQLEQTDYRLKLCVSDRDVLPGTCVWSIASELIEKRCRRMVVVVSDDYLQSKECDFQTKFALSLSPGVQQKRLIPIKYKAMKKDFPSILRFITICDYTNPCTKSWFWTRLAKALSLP

Target: Toll-like receptor 4 (mouse (endogenous in RAW 264.7)) (UniProt Q9QUK6)
Assay: co-IP; anti-TLR4 antibody and magnetic beads on RAW 264.7 lysate; cells treated with LPS (20 ng/ml) and indicated concentrations of pentamidine for 1 h; lysis buffer 25 mM Tris pH 8.0, 150 mM KCl, 5 mM EDTA, 0.5% NP-40; MD2, TLR4 and MyD88 detected by Western blotting

binding: binds
Molecule: MyD88 (from UniProt P22366 1-296)

binding: binds
B1: myeloid differentiation protein 2 (protein, UniProt Q9JHF9 19-160)
chain: EKQQWFCNSSDAIISYSYCDHLKFPISISSEPCIRLRGTNGFVHVEFIPRGNLKYLYFNLFISVNSIELPKRKEVLCHGHDDDYSFCRALKGETVNTSIPFSFEGILFPKGHYRCVAEAIAGDTEEKLFCLNFTIIHRRDVN
